# Some of the results follow.
# B1: CALR truncated at D342 (Homo sapiens) (protein)
# chain: EPAVYFKEQFLDGDGWTSRWIESKHKSDFGKFVLSSGKFYGDEEKDKGLQTSQDARFYALSASFEPFSNKGQTLVVQFTVKHEQNIDCGGGYVKLFPNSLDQTDMHGDSEYNIMFGPDICGPGTKKVHVIFNYKGKNVLINKDIRCKDDEFTHLYTLIVRPDNTYEVKIDNSQVESGSLEDDWDFLPPKKIKDPDASKPEDWDERAKIDDPTDSKPEDWDKPEHIPDPDAKKPEDWDEEMDGEWEPPVIQNPEYKGEWKPRQIDNPDYKGTWIHPEIDNPEYSPDPSIYAYDNFGVLGLDLWQVKSGTIFDNFLITNDEAYAEEFGNETWGVTKAAEKQMKD
# Legend:
# Assay in all cases: glycan array binding signal (z-score within array); higher = stronger binding
# Settings in all cases: glycan notation: IUPAC condensed, linker removed
# [1] = biological target: Gal(b1-3)GlcNAc(b1-3)Gal(b1-3)GlcNAc
# How it was run: (§1)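 Glycan array binding is given as a within-array Z-score, which can be read as non-binding when negative. The arrays, 3228 of them, came from the Consortium for Functional Glycomics database and were retained only where the protein sequence was available. Z-scores were averaged across arrays of the same protein sequence at different concentrations or buffers and across linkers.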
# [2] = biological target: Gal(b1-3)GlcNAc(b1-3)Gal(b1-4)Glc
# How it was run: as §1
# [3] = biological target: Gal(b1-3)GlcNAc(b1-3)Gal(b1-4)GlcNAc
# How it was run: as §1
# [4] = biological target: Gal(b1-3)GlcNAc(b1-3)Gal(b1-4)GlcNAc(b1-6)[Gal(b1-3)GlcNAc(b1-3)]Gal(b1-4)Glc
# How it was run: as §1
# [5] = biological target: Gal(b1-3)GlcNAc(b1-3)Gal(b1-4)[Fuc(a1-3)]GlcNAc(b1-6)[Gal(b1-3)GlcNAc(b1-3)]Gal(b1-4)Glc
# How it was run: as §1
# [6] = biological target: Gal(b1-3)GlcNAc(b1-3)GalNAc
# How it was run: as §1
# [7] = biological target: Gal(b1-3)GlcNAc(b1-6)Gal(b1-4)GlcNAc
# How it was run: as §1
# [8] = biological target: Gal(b1-3)GlcNAc(b1-6)GalNAc
# How it was run: as §1
# Gal(b1-3)GlcNAc6S = biological target: Gal(b1-3)GlcNAc6S
# How it was run: as §1
# [9] = biological target: Gal(b1-3)[Fuc(a1-4)]GlcNAc
# How it was run: as §1
# [10] = biological target: Gal(b1-3)[Fuc(a1-4)]GlcNAc(b1-2)Man(a1-3)[Gal(b1-3)[Fuc(a1-4)]GlcNAc(b1-2)Man(a1-6)]Man(b1-4)GlcNAc(b1-4)[Fuc(a1-6)]GlcNAc
# How it was run: as §1
# [11] = biological target: Gal(b1-3)[Fuc(a1-4)]GlcNAc(b1-3)Gal(b1-3)[Fuc(a1-4)]GlcNAc
# How it was run: as §1
# [12] = biological target: Gal(b1-3)[Fuc(a1-4)]GlcNAc(b1-3)Gal(b1-4)GlcNAc
# How it was run: as §1
# [13] = biological target: Gal(b1-3)[Fuc(a1-4)]GlcNAc(b1-3)Gal(b1-4)[Fuc(a1-3)]GlcNAc
# How it was run: as §1
# [14] = biological target: Gal(b1-3)[Fuc(a1-4)]GlcNAc(b1-6)GalNAc
# How it was run: as §1
# [15] = biological target: Gal(b1-3)[GlcNAc(b1-6)]GalNAc
# How it was run: as §1
# [16] = biological target: Gal(b1-3)[Neu5Ac(a2-6)]GalNAc
# How it was run: as §1
# [17] = biological target: Gal(b1-3)[Neu5Ac(a2-6)]GlcNAc(b1-6)Gal(b1-4)Glc
# How it was run: as §1
# [18] = biological target: Gal(b1-3)[Neu5Ac(b2-6)]GalNAc
# How it was run: as §1
# Gal(b1-4)Gal = biological target: Gal(b1-4)Gal
# How it was run: as §1
# [19] = biological target: Gal(b1-4)GalNAc(a1-3)[Fuc(a1-2)]Gal(b1-4)GlcNAc
# How it was run: as §1
# [20] = biological target: Gal(b1-4)GalNAc(b1-3)[Fuc(a1-2)]Gal(b1-4)GlcNAc
# How it was run: as §1
# Gal(b1-4)Glc = biological target: Gal(b1-4)Glc
# How it was run: as §1
# Gal(b1-4)Glc6S = biological target: Gal(b1-4)Glc6S
# How it was run: as §1
# Gal(b1-4)GlcNAc = biological target: Gal(b1-4)GlcNAc
# How it was run: as §1
# [21] = biological target: Gal(b1-4)GlcNAc(a1-6)Gal(b1-4)GlcNAc
# How it was run: as §1
# Gal(b1-4)GlcNAc(b1-2)Man = biological target: Gal(b1-4)GlcNAc(b1-2)Man
# How it was run: as §1
# [22] = biological target: Gal(b1-4)GlcNAc(b1-2)Man(a1-3)Man(b1-4)GlcNAc(b1-4)GlcNAc
# How it was run: as §1
# [23] = biological target: Gal(b1-4)GlcNAc(b1-2)Man(a1-3)[Gal(b1-4)GlcNAc(b1-2)Man(a1-6)]Man(b1-4)GlcNAc(b1-4)GlcNAc
# How it was run: as §1
# [24] = biological target: Gal(b1-4)GlcNAc(b1-2)Man(a1-3)[Gal(b1-4)GlcNAc(b1-2)Man(a1-6)]Man(b1-4)GlcNAc(b1-4)[Fuc(a1-6)]GlcNAc
# How it was run: as §1
# [25] = biological target: Gal(b1-4)GlcNAc(b1-2)Man(a1-3)[Gal(b1-4)GlcNAc(b1-2)][GlcNAc(b1-4)]Man(b1-4)GlcNAc(b1-4)GlcNAc
# How it was run: as §1
# [26] = biological target: Gal(b1-4)GlcNAc(b1-2)Man(a1-3)[GlcNAc(b1-2)Man(a1-6)]Man(b1-4)GlcNAc(b1-4)GlcNAc
# How it was run: as §1
# [27] = biological target: Gal(b1-4)GlcNAc(b1-2)Man(a1-3)[Man(a1-6)]Man(b1-4)GlcNAc(b1-4)GlcNAc
# How it was run: as §1
# [28] = biological target: Gal(b1-4)GlcNAc(b1-2)Man(a1-6)Man(b1-4)GlcNAc(b1-4)GlcNAc
# How it was run: as §1
# [29] = biological target: Gal(b1-4)GlcNAc(b1-2)Man(a1-6)[GlcNAc(b1-2)Man(a1-3)]Man(b1-4)GlcNAc(b1-4)GlcNAc
# How it was run: as §1
# [30] = biological target: Gal(b1-4)GlcNAc(b1-2)Man(a1-6)[Man(a1-3)]Man(b1-4)GlcNAc(b1-4)GlcNAc
# How it was run: as §1
# [31] = biological target: Gal(b1-4)GlcNAc(b1-2)[Gal(b1-4)GlcNAc(b1-4)]Man(a1-3)[Gal(b1-4)GlcNAc(b1-2)Man(a1-6)]Man(b1-4)GlcNAc(b1-4)GlcNAc
# How it was run: as §1
# [32] = biological target: Gal(b1-4)GlcNAc(b1-2)[Gal(b1-4)GlcNAc(b1-4)]Man(a1-3)[Gal(b1-4)GlcNAc(b1-2)[Gal(b1-4)GlcNAc(b1-6)]Man(a1-6)]Man(b1-4)GlcNAc(b1-4)GlcNAc
# How it was run: as §1
binder,measurement,setting,value
B1,glycan array binding signal (z-score),[1],-0.436
same,glycan array binding signal (z-score),[2],-0.183
same,glycan array binding signal (z-score),[3],-0.279
same,glycan array binding signal (z-score),[4],0.4
same,glycan array binding signal (z-score),[5],-0.836
same,glycan array binding signal (z-score),[6],-0.05
same,glycan array binding signal (z-score),[7],0.413
same,glycan array binding signal (z-score),[8],0.022
same,glycan array binding signal (z-score),Gal(b1-3)GlcNAc6S,-0.136
same,glycan array binding signal (z-score),[9],-0.387
same,glycan array binding signal (z-score),[10],1.24
same,glycan array binding signal (z-score),[11],0.907
same,glycan array binding signal (z-score),[12],-1.19
same,glycan array binding signal (z-score),[13],4.2
same,glycan array binding signal (z-score),[14],0.999
same,glycan array binding signal (z-score),[15],-0.225
same,glycan array binding signal (z-score),[16],-0.241
same,glycan array binding signal (z-score),[17],-0.26
same,glycan array binding signal (z-score),[18],0.075
same,glycan array binding signal (z-score),Gal(b1-4)Gal,0.033
same,glycan array binding signal (z-score),[19],-1.26
same,glycan array binding signal (z-score),[20],-1.75
same,glycan array binding signal (z-score),Gal(b1-4)Glc,-0.137
same,glycan array binding signal (z-score),Gal(b1-4)Glc6S,0.658
same,glycan array binding signal (z-score),Gal(b1-4)GlcNAc,-0.183
same,glycan array binding signal (z-score),[21],-1.37
same,glycan array binding signal (z-score),Gal(b1-4)GlcNAc(b1-2)Man,-0.346
same,glycan array binding signal (z-score),[22],-0.339
same,glycan array binding signal (z-score),[23],0.293
same,glycan array binding signal (z-score),[24],-1.23
same,glycan array binding signal (z-score),[25],0.094
same,glycan array binding signal (z-score),[26],-0.415
same,glycan array binding signal (z-score),[27],1.03
same,glycan array binding signal (z-score),[28],-0.934
same,glycan array binding signal (z-score),[29],0.351
same,glycan array binding signal (z-score),[30],-0.441
same,glycan array binding signal (z-score),[31],1.23
same,glycan array binding signal (z-score),[32],0.293

# 2 neighbouring records already listed:
binder,measurement,setting,value
B1,glycan array binding signal (z-score),Gal(b1-3)GlcNAc6S,-0.136
same,glycan array binding signal (z-score),[9],-0.387

# Source: the supplement of paper PMC8728848
